ChEMBL document CHEMBL4316593 (Eur J Med Chem, 2019)
This continues a long series; more values of the same kind are listed elsewhere.

Tests used:
Type in all cases: cell-based
Conditions in all cases: U-87MG ATCC
[1] = Inhibition of RTK/PI3K/AKT/mTOR signaling in human U87 cells assessed as down regulation of ZEB1 gene expression at cytotoxic IC50 measured after 48 hrs relative to control
[2] = Inhibition of RTK/PI3K/AKT/mTOR signaling in human U87 cells assessed as down regulation of ZBTB41 gene expression at cytotoxic IC50 measured after 48 hrs relative to control
[3] = Inhibition of RTK/PI3K/AKT/mTOR signaling in human U87 cells assessed as down regulation of GLRX2 gene expression at cytotoxic IC50 measured after 48 hrs relative to control
[4] = Inhibition of RTK/PI3K/AKT/mTOR signaling in human U87 cells assessed as down regulation of ZNF304 gene expression at cytotoxic IC50 measured after 48 hrs relative to control
[5] = Inhibition of RTK/PI3K/AKT/mTOR signaling in human U87 cells assessed as down regulation of TSC22D2 gene expression at cytotoxic IC50 measured after 48 hrs relative to control
[6] = Inhibition of RTK/PI3K/AKT/mTOR signaling in human U87 cells assessed as down regulation of KLHL9 gene expression at cytotoxic IC50 measured after 48 hrs relative to control
[7] = Inhibition of RTK/PI3K/AKT/mTOR signaling in human U87 cells assessed as down regulation of MDM1 gene expression at cytotoxic IC50 measured after 48 hrs relative to control
[8] = Inhibition of RTK/PI3K/AKT/mTOR signaling in human U87 cells assessed as down regulation of PTPN21 gene expression at cytotoxic IC50 measured after 48 hrs relative to control
[9] = Inhibition of RTK/PI3K/AKT/mTOR signaling in human U87 cells assessed as down regulation of WDHD1 gene expression at cytotoxic IC50 measured after 48 hrs relative to control
[10] = Inhibition of RTK/PI3K/AKT/mTOR signaling in human U87 cells assessed as down regulation of PJA1 gene expression at cytotoxic IC50 measured after 48 hrs relative to control
[11] = Inhibition of RTK/PI3K/AKT/mTOR signaling in human U87 cells assessed as down regulation of PRMT9 gene expression at cytotoxic IC50 measured after 48 hrs relative to control
[12] = Inhibition of RTK/PI3K/AKT/mTOR signaling in human U87 cells assessed as down regulation of TAF7 gene expression at cytotoxic IC50 measured after 48 hrs relative to control
[13] = Inhibition of RTK/PI3K/AKT/mTOR signaling in human U87 cells assessed as down regulation of CEP295 gene expression at cytotoxic IC50 measured after 48 hrs relative to control
[14] = Inhibition of RTK/PI3K/AKT/mTOR signaling in human U87 cells assessed as down regulation of MED23 gene expression at cytotoxic IC50 measured after 48 hrs relative to control
[15] = Inhibition of RTK/PI3K/AKT/mTOR signaling in human U87 cells assessed as down regulation of TDP2 gene expression at cytotoxic IC50 measured after 48 hrs relative to control
[16] = Inhibition of RTK/PI3K/AKT/mTOR signaling in human U87 cells assessed as down regulation of C1orf52 gene expression at cytotoxic IC50 measured after 48 hrs relative to control
[17] = Inhibition of RTK/PI3K/AKT/mTOR signaling in human U87 cells assessed as down regulation of PPP1R12C gene expression at cytotoxic IC50 measured after 48 hrs relative to control
[18] = Inhibition of RTK/PI3K/AKT/mTOR signaling in human U87 cells assessed as down regulation of CDC20 gene expression at cytotoxic IC50 measured after 48 hrs relative to control
[19] = Inhibition of RTK/PI3K/AKT/mTOR signaling in human U87 cells assessed as down regulation of RAB14 gene expression at cytotoxic IC50 measured after 48 hrs relative to control
[20] = Inhibition of RTK/PI3K/AKT/mTOR signaling in human U87 cells assessed as up regulation of RASGRF1 gene expression at cytotoxic IC50 measured after 48 hrs relative to control
[21] = Inhibition of RTK/PI3K/AKT/mTOR signaling in human U87 cells assessed as up regulation of PDE2A gene expression at cytotoxic IC50 measured after 48 hrs relative to control
[22] = Inhibition of RTK/PI3K/AKT/mTOR signaling in human U87 cells assessed as up regulation of ARHGAP22 gene expression at cytotoxic IC50 measured after 48 hrs relative to control
[23] = Inhibition of RTK/PI3K/AKT/mTOR signaling in human U87 cells assessed as up regulation of nuclear factor I B gene expression at cytotoxic IC50 measured after 48 hrs relative to control
[24] = Inhibition of RTK/PI3K/AKT/mTOR signaling in human U87 cells assessed as up regulation of melanophilin gene expression at cytotoxic IC50 measured after 48 hrs relative to control
[25] = Inhibition of RTK/PI3K/AKT/mTOR signaling in human U87 cells assessed as up regulation of churchill domain containing 1 gene expression at cytotoxic IC50 measured after 48 hrs relative to control
[26] = Inhibition of RTK/PI3K/AKT/mTOR signaling in human U87 cells assessed as up regulation of SLIT-ROBO Rho GTPase activating protein 1 gene expression at cytotoxic IC50 measured after 48 hrs relative to control
[27] = Inhibition of RTK/PI3K/AKT/mTOR signaling in human U87 cells assessed as up regulation of HECT and RLD domain containing E3 ubiquitin protein ligase 3 gene expression at cytotoxic IC50 measured after 48 hrs relative to control
[28] = Inhibition of RTK/PI3K/AKT/mTOR signaling in human U87 cells assessed as up regulation of sperm specific antigen 2 gene expression at cytotoxic IC50 measured after 48 hrs relative to control
[29] = Inhibition of RTK/PI3K/AKT/mTOR signaling in human U87 cells assessed as up regulation of retrotransposon Gag like 8A gene expression at cytotoxic IC50 measured after 48 hrs relative to control
[30] = Inhibition of RTK/PI3K/AKT/mTOR signaling in human U87 cells assessed as up regulation of tripartite motif containing 5 gene expression at cytotoxic IC50 measured after 48 hrs relative to control
[31] = Inhibition of RTK/PI3K/AKT/mTOR signaling in human U87 cells assessed as up regulation of transducin like enhancer of split 2 gene expression at cytotoxic IC50 measured after 48 hrs relative to control
[32] = Inhibition of RTK/PI3K/AKT/mTOR signaling in human U87 cells assessed as up regulation of NEIL2 gene expression at cytotoxic IC50 measured after 48 hrs relative to control

`CC(=O)C(=NNc1ccccc1C#N)C(C)=O` showed a log2FC [1] of -1.62, a log2FC [2] of -1.52 and a log2FC [3] of -1.19. For the same molecule, the log2FC [4] was -1.17, the log2FC [5] was -1.04 and the log2FC [6] was -1.02. The log2FC [7] was -1.01, the log2FC [8] was -1.01 and the log2FC [9] was -0.948. For the same molecule, the log2FC [10] was -0.925, the log2FC [11] was -0.884 and the log2FC [12] was -0.832. The log2FC [13] was -0.821, the log2FC [14] was -0.679 and the log2FC [15] was -0.622. It also gave a log2FC [16] of -0.619, a log2FC [17] of -0.615 and a log2FC [18] of -0.538. For the same molecule, the log2FC [19] was -0.428, the log2FC [20] was 2.31 and the log2FC [21] was 1.95. For the same molecule, the log2FC [22] was 1.69, the log2FC [23] was 1.55 and the log2FC [24] was 1.34. It also gave a log2FC [25] of 1.28, a log2FC [26] of 1.17 and a log2FC [27] of 1.01. The log2FC [28] was 0.854, the log2FC [29] was 0.718 and the log2FC [30] was 0.71. The log2FC [31] was 0.686 and the log2FC [32] was 0.608.
